Measurements: PubChem BioAssay AID493014 (National Center for Advancing Translational Sciences (NCATS), 2011)
Some of the results follow. Further columns of the screen follow, without active or inactive calls. The list favours compounds with an active or inconclusive main result. Words in brackets tell the shape of the fitted curve; partial curves, single points and poor fits give uncertain potencies.

Experiment: qHTS Assay to Find Inhibitors of Chronic Active B-Cell Receptor Signaling
Settings: ABC-DLBCL IkBa-CBG/CBR reporter, luminescence ratio (green luciferase fused to IkBa over red control in TMD8 lymphoma cells), 4 h
In short: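 TMD8 human ABC-DLBCL cells with doxycycline-inducible IκBα–green luciferase fusion and unfused red luciferase, in 0.5% FBS medium; compounds up to 46 uM, 4 h at 37C. Green/red luminescence ratio, filter-overlap corrected, fitted to concentration-response curves.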

[1] = measured here: CBR red luminescence, cell number
[2] = measured here: IkBa-CBG green luminescence

SMILES	AC50 [1]	AC50 [2]
CCC1CCCCN1C(=O)COC(=O)CN(C)S(=O)(=O)c1ccc(NC(C)=O)cc1 (stereo not given)	14.6 µM [rising, partial curve, poor fit]	–
CCOC(=O)c1sc(NC(=O)CSC(=S)N2CCN(C)CC2)nc1C	6.31 µM [falling, partial curve]	–
O=c1cc(NCc2ccco2)c2ccccc2o1	4.11 µM [falling, partial curve, poor fit]	–
CC(=O)Cc1nsc(NC(=O)c2ccc(-c3ccc(Cl)cc3Cl)o2)n1	29.1 µM [falling, single point]	–
COC(=O)C1=CN(c2cccc(C)c2)C=C(C(=O)OC)C1c1cc(OC)c(O)c([N+](=O)[O-])c1	0.631 µM [falling, partial curve, poor fit]	–
O=C(c1cc(-c2ccccc2)n[nH]1)N1CCc2c([nH]c3ccccc23)C1c1ccccn1 (stereo not given)	6.31 µM [rising, full curve, poor fit]	–
Clc1cccc(/C=N/Nc2nc(Cl)nc3ccccc23)c1	1.26 µM [falling, partial curve, poor fit]	–
O=C(/C=C/c1ccc(Br)cc1)c1ccco1	29.1 µM [rising, single point]	29.1 µM [falling, partial curve, poor fit]
CC(=O)Nc1oc(-c2cccc3ccccc23)nc1C#N	1.64 µM [rising, full curve]	–
Cc1cc(NS(=O)(=O)c2ccc(NC(=S)NC(=O)/C=C/c3ccccc3)cc2)no1	6.31 µM [falling, partial curve, poor fit]	–
Cc1c(C(=O)NCc2ccccc2F)oc2ccccc12	1 µM [rising, full curve]	–
C=CCN1C(=O)CS/C1=C(\C#N)S(=O)(=O)c1ccc(C)cc1	1.64 µM [rising, partial curve, poor fit]	–
COc1ccccc1NC(=O)c1cccc(S(=O)(=O)N2CCN(Cc3ccccc3)CC2)c1	2.91 µM [falling, partial curve, poor fit]	–
COCCNC(=O)/C(C#N)=C/c1c(N2CCCCCC2)nc2c(C)cccn2c1=O	25.1 µM [falling, single point]	–
S=C(NCCc1ccc(Cl)cc1)NC1CCCCC1	12.6 µM [falling, partial curve]	–
Cc1cc(C)c(NC(=O)CNC(=O)COC(=O)CN2C(=O)NC3(CCCC3)C2=O)c(C)c1	8.2 µM [rising, partial curve, poor fit]	–
CCNC(=O)C1CC(=O)N(Cc2ccc3c(c2)OCO3)C(=Nc2ccc(OCC)cc2)S1 (stereo not given)	1.3 µM [falling, partial curve]	–
Cc1ccc(S(=O)(=O)NCc2ccc(C(=O)NC3CCCCC3)cc2)cc1	35.5 µM [rising, single point]	–
CCCCCCn1c(=O)c(F)cn(Cc2ccc(OC)c([N+](=O)[O-])c2)c1=O	2.59 µM [rising, full curve, poor fit]	–
C[n+]1ccc(/C=C/c2ccccc2O)c2ccccc21	3.16 µM [falling, single point]	–
CS(=O)(=O)Nc1ccc(C2=NN(C(=O)c3ccco3)C(c3ccccc3F)C2)cc1 (stereo not given)	22.4 µM [falling, single point]	–

SMILES	AC50 [1]	AC50 [2]
COc1ccc(CC(=O)n2[nH]c(=O)cc(C)c2=O)cc1OC	14.1 µM [falling, partial curve, poor fit]	–
O=C(CNC(=S)N(Cc1ccccc1Cl)C1CCCC1)NCCCN1CCOCC1	22.4 µM [falling, single point]	–
Cc1ccc(NC(=O)CCNC(=O)c2ccc(Cl)cc2)nc1	17.8 µM [falling, single point]	–
O=C1CC(SC(=Nc2ccccc2)Nc2ccccc2)C(=O)N1c1ccc(Cl)c(Cl)c1 (stereo not given)	29.1 µM [falling, single point]	–
O=C(CCNC(=O)N1CC(=O)Nc2ccccc21)NCc1cccc(Cl)c1	5.62 µM [rising, single point]	–
COc1cc(/C=C2/C(=O)ON=C2C)cc(Cl)c1O	5.62 µM [rising, single point]	–
CCCc1cc(=O)[nH]c(NCCc2ccccc2)n1	5.01 µM [rising, partial curve, poor fit]	–
CCOc1ccc(-c2nc(CSCC(=O)N3CCN(c4cccc(OC)c4)CC3)c(C)o2)cc1	25.1 µM [falling, single point]	–
CCOC(=O)c1c(NC(=O)c2nn(CC)cc2Br)c(C#N)nn1-c1ccccc1	10.3 µM [falling, partial curve]	–
Cc1nnc(SCC(=O)Nc2nc(-c3ccc(F)cc3)cs2)[nH]c1=O	2.82 µM [rising, full curve, poor fit]	–
CC(=O)N1CCN(CC(=O)NC(=O)Nc2ccc3c(c2)OCCO3)CC1	29.1 µM [falling, partial curve, poor fit]	–
CCOC(=O)c1cnc2c(N=Nc3ccccc3)c(N)nn2c1N	0.0891 µM [falling, full curve, poor fit]	–
Cc1cnn(-c2ccc3nnc(-c4ccc(Cl)cc4)n3n2)c1	0.447 µM [falling, full curve]	–
Nc1nnc(SCC(=O)c2cccc([N+](=O)[O-])c2)s1	10 µM [rising, partial curve, poor fit]	–
CCC(CC)c1nnc(NC(=O)c2ccc([N+](=O)[O-])cc2)s1	2.31 µM [rising, partial curve]	–
Cc1ccc(NC(=S)NC(=O)c2sc3ccccc3c2Cl)c(C(=O)O)c1	11.2 µM [falling, partial curve]	–
Cc1ccnc(N2C3CCC2CC(O)(c2ccccc2)C3)n1 (stereo not given)	35.5 µM [rising, single point]	–
S=C1SCN(Cc2ccccn2)CN1Cc1ccco1	0.562 µM [falling, partial curve, poor fit]	–
CCCC(=O)Nc1nnc(-c2ccc(Cl)s2)o1	16.4 µM [falling, single point]	–
Cc1cc(C)c(OCC(=O)Nc2cccc(NC(=O)c3ccco3)c2)c(Br)c1	22.4 µM [falling, single point]	–
O=c1[nH]c(C2CCN(S(=O)(=O)c3ccccc3)CC2)nc2c1nnn2Cc1ccc2c(c1)OCCO2	10 µM [falling, partial curve, poor fit]	–

SMILES	AC50 [1]	AC50 [2]
COc1ccc([C@H]2[C@H](C(=O)C(C)(C)C)N3N=Cc4ccccc4C3[C@]23N=C(c2ccccc2)OC3=O)cc1 (stereo not given in full)	3.98 µM [rising, partial curve]	–
CCOc1ccc(CCNC(=O)C2CCN(S(=O)(=O)N3CCCCC3)CC2)cc1OCC	–	5.8 µM [falling, partial curve, poor fit]
COc1ccccc1C1CC(c2ccc(Br)cc2)=NN1C(=O)c1cccnc1 (stereo not given)	3.26 µM [falling, full curve, poor fit]	–
COc1cccc(Cn2cccc(NC(=O)Nc3ccc(C#N)cc3)c2=O)c1	11.2 µM [rising, partial curve, poor fit]	–
C=CCN(CC=C)CCOc1ccc2ccccc2c1	35.5 µM [rising, single point]	–
O=c1c2ccc(Cl)cc2[nH]c(=S)n1CCCN1CCOCC1	3.55 µM [falling, partial curve, poor fit]	–
COc1ccc(/C=N/NC(=O)c2ccccc2O)cc1Cn1nnc2ccccc21	7.94 µM [falling, partial curve]	–
COc1ccc(-c2oc3ccc(-c4cc(OC)c(OC)c(OC)c4)cc3c2C(=O)c2ccc(OC)nc2)cc1	3.55 µM [rising, partial curve]	6.31 µM [falling, partial curve, poor fit]
COc1ccccc1NC(=O)COC(=O)c1cc(C)nc2ccccc12	2.06 µM [falling, full curve]	–
C=C(c1cccc2ccccc12)P(=O)(O)O	1.16 µM [falling, full curve]	–
CC(C)(C)c1ccc(/C=C2\CCn3c2nc2cc(C(=O)O)ccc2c3=O)cc1	10 µM [rising, partial curve, poor fit]	–
CC(=O)c1ccc(NC(=O)CCC(=O)OCC(=O)c2cccc([N+](=O)[O-])c2)cc1	12.6 µM [falling, partial curve]	–
O=C(COc1ccccc1Cl)Nc1cc(Cl)ccc1O	8.91 µM [falling, partial curve, poor fit]	–
COc1cc(OC)c(NC(=O)c2ccccc2F)cc1Cl	5.01 µM [rising, partial curve, poor fit]	–
CCOc1ccccc1N1CC(C(=O)Nc2cccc(S(=O)(=O)N3CCCCC3)c2)CC1=O (stereo not given)	1.58 µM [rising, partial curve, poor fit]	–
O=C(Cn1nnc(-c2ccccc2)n1)OCc1csc(-c2ccccc2)n1	2.51 µM [rising, full curve, poor fit]	–
COc1cc(S(=O)(=O)N2CCN(Cc3ccccc3)CC2)ccc1Br	14.6 µM [falling, partial curve, poor fit]	–
COc1ccc(C(=O)NNC(=S)NC(=O)C(C)(C)C)cc1	31.6 µM [rising, single point]	35.5 µM [falling, single point]
CCCCc1nc(N2CCN(C(=O)c3ccco3)CC2)c(C#N)c2c1CCCC2	15.8 µM [falling, single point]	–
CCOC(=O)C1CCN(C/C=C/c2ccccc2OC)CC1	2.31 µM [falling, partial curve]	–

Reformatted in CSV form: 2 of the compounds above.
SMILES,AC50 [1],AC50 [2]
COc1ccccc1NC(=O)COC(=O)c1cc(C)nc2ccccc12,"2.06 µM [falling, full curve]",–
O=C(COc1ccccc1Cl)Nc1cc(Cl)ccc1O,"8.91 µM [falling, partial curve, poor fit]",–
